Common to all, as to details: yeast three-hybrid, YBZ-1, SC-Leu-His + 0.5 mM 3-AT, 4 days
For experiment [1], the target named is T1, PUM1 PUF domain R6-AFL N1043A + Y1044F + Q1047L (UniProt Q14671).
T1 sequence: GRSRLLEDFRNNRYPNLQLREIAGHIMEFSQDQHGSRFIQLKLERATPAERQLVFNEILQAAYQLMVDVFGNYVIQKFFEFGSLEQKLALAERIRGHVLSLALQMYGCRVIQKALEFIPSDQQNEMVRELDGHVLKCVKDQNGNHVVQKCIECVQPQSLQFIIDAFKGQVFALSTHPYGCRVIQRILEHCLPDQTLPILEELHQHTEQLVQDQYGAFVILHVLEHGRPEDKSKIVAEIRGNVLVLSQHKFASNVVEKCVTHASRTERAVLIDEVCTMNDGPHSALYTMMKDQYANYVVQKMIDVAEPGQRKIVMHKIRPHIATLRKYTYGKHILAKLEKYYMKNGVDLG

For experiment [2], the target named is T2, PUM1 PUF domain R6-AWV N1043A + Y1044W + Q1047V (UniProt Q14671).
T2 sequence: T1 sequence with F217W, L220V

For experiment [3], the target named is T3, PUM1 PUF domain R6-AYG N1043A + Q1047G (UniProt Q14671).
T3 sequence: T1 sequence with F217Y, L220G

Experiment [4] has as its target T4, PUM1 PUF domain R6-CWS N1043C + Y1044W + Q1047S (UniProt Q14671).
T4 sequence: T1 sequence with A216C, F217W, L220S

For experiment [5], the target named is T5, PUM1 PUF domain R6-DWV N1043D + Y1044W + Q1047V (UniProt Q14671).
T5 sequence: T1 sequence with A216D, F217W, L220V

The target in experiment [6] is T6, PUM1 PUF domain R6-EWG N1043E + Y1044W + Q1047G (UniProt Q14671).
T6 sequence: T1 sequence with A216E, F217W, L220G

Experiment [7] addresses T7, PUM1 PUF domain R6-EWV N1043E + Y1044W + Q1047V (UniProt Q14671).
T7 sequence: T1 sequence with A216E, F217W, L220V

In experiment [8] the target is T8, PUM1 PUF domain R6-FRI N1043F + Y1044R + Q1047I (UniProt Q14671).
T8 sequence: T1 sequence with A216F, F217R, L220I

Experiment [9] addresses T9, PUM1 PUF domain R6-FWS N1043F + Y1044W + Q1047S (UniProt Q14671).
T9 sequence: T1 sequence with A216F, F217W, L220S

The target in experiment [10] is T10, PUM1 PUF domain R6-FYS N1043F + Q1047S (UniProt Q14671).
T10 sequence: T1 sequence with A216F, F217Y, L220S

Experiment [11] addresses T11, PUM1 PUF domain R6-GFA N1043G + Y1044F + Q1047A (UniProt Q14671).
T11 sequence: T1 sequence with A216G, L220A

Experiment [12] has as its target T12, PUM1 PUF domain R6-GWC N1043G + Y1044W + Q1047C (UniProt Q14671).
T12 sequence: T1 sequence with A216G, F217W, L220C

Experiment [13] has as its target T13, PUM1 PUF domain R6-GWI N1043G + Y1044W + Q1047I (UniProt Q14671).
T13 sequence: T1 sequence with A216G, F217W, L220I

The target in experiment [14] is T14, PUM1 PUF domain R6-GWM N1043G + Y1044W + Q1047M (UniProt Q14671).
T14 sequence: T1 sequence with A216G, F217W, L220M

Experiment [15] has as its target T15, PUM1 PUF domain R6-GYK N1043G + Q1047K (UniProt Q14671).
T15 sequence: T1 sequence with A216G, F217Y, L220K

For experiment [16], the target named is T16, PUM1 PUF domain R6-IYL N1043I + Q1047L (UniProt Q14671).
T16 sequence: T1 sequence with A216I, F217Y

Experiment [17] concerns the target T17, PUM1 PUF domain R6-LFS N1043L + Y1044F + Q1047S (UniProt Q14671).
T17 sequence: T1 sequence with A216L, L220S

The target in experiment [18] is T18, PUM1 PUF domain R6-LFV N1043L + Y1044F + Q1047V (UniProt Q14671).
T18 sequence: T1 sequence with A216L, L220V

For experiment [19], the target named is T19, PUM1 PUF domain R6-LHS N1043L + Y1044H + Q1047S (UniProt Q14671).
T19 sequence: T1 sequence with A216L, F217H, L220S

The target of experiment [20] is T20, PUM1 PUF domain R6-QRS N1043Q + Y1044R + Q1047S (UniProt Q14671).
T20 sequence: T1 sequence with A216Q, F217R, L220S

In article PMC8384837 one finds binding signal (log2 enrichment (interaction score)) data, which are given here for two sequences.

Residue numbers refer to the chain shown, from its start. Some of the results follow. At the low end of the ranking the order means little.

For the sequence “GGCUAGAACUAGUGGAUCCCCCGGCGCCCGGCGGCUCGAGCCCGGGUAAGUGGAAAUAGUCUGCAUGCCGCCGGGCGCCAUGCCUGCAGGUCGACUCUAGAAAACAUG”, the binding signal (log2 enrichment (interaction score)) in experiment [1] is < -7.01; in experiment [2], < -8.07; in experiment [3], < -9.6; in experiment [4], < -7.3; in experiment [5], < -6.93; in experiment [6], -7.86. Besides, the binding signal (log2 enrichment (interaction score)) is < -8.62 in experiment [7]; < -8.09 in experiment [8]; < -8.76 in experiment [9]; < -7.88 in experiment [10]; < -6.39 in experiment [11]; < -8.53 in experiment [12]. For the same sequence, the binding signal (log2 enrichment (interaction score)) was < -8.21 in [13]; < -9.13 in experiment [14]; < -7.38 in experiment [15]; < -6.9 in [16]; < -6.62 in experiment [17]; < -8.49 in [18]. The binding signal (log2 enrichment (interaction score)) in experiment [19] is < -7.3; in [20] it was -7.47.
For the sequence “GGCUAGAACUAGUGGAUCCCCCGGCGCCCGGCGGCUCGAGCCCGGGUAAGUGCAAAUAGUCUGCAUGCCGCCGGGCGCCAUGCCUGCAGGUCGACUCUAGAAAACAUG”, the binding signal (log2 enrichment (interaction score)) in experiment [1] is < -7.05; in [2], < -6.84; in experiment [3] it was < -7.97; in [4], < -7.42; in experiment [5], < -7.79; in experiment [6], < -6.95. The binding signal (log2 enrichment (interaction score)) in experiment [7] was < -6.72; in [8], < -6.97; in experiment [9] it was < -6.44; in [10], < -7.64; in experiment [11], < -8.26; in [12] it was < -7.38. The binding signal (log2 enrichment (interaction score)) in [13] was < -6.14; in experiment [14] it was < -7.79; in experiment [15] it was < -6.63; in [16], < -7.92; in experiment [17] it was < -8.6; in experiment [18] it was < -8.3. Besides, the results for the binding signal (log2 enrichment (interaction score)) in [19] and in experiment [20] were < -7.63 and < -7.37, respectively.
